Measurements as given in patent US20250212876A1, “METHOD FOR CONTROLLING PLANT DISEASES” (SUMITOMO CHEMICAL COMPANY, LIMITED, priority 2022, published 2025).
Some of these results come from one statement about several compounds together. At least one structure is not confirmed: it was looked up by name or label, or the drawing left a doubt.

Tested on: Phakopsora pachyrhizi having an amino acid substitution of F129L on mitochondrial cytochrome b protein
Experiment: Test Example 7: control test against soybean rust, soybean leaf disk
Assay type: in vivo
Details: 50 ppm, 10 μL sprayed per soybean leaf disk 1 day before inoculation; F129L fungus

SMILES | lesion area in the treated leaf disk compared to the lesion area in an untreated leaf disk
CCCSc1cccc(-c2cc(F)c(Cl)c(F)c2)c1 [compound 13] | ≤ 30%
CCS(=O)(=O)c1cccc(-c2ccc(C)c(F)c2)c1 [compound 11] | ≤ 30%
CCC[S+]([O-])c1cccc(-c2cc(F)c(C)c(F)c2)c1 (stereo not shown) [compound 37] | ≤ 30%
O=S(=O)(c1cccc(-c2cc(F)c(Cl)c(F)c2)c1)c1cnccn1 [compound 76] | ≤ 30%
CC[S+]([O-])c1cccc(-c2ccc(C(F)(F)F)cc2)c1 (stereo not shown) [compound 28] | ≤ 30%
CCCSc1cccc(-c2ccc(C)c(F)c2)c1 [compound 14] | ≤ 30%
CCS(=O)(=O)c1cccc(-c2ccc(Cl)c(F)c2)c1 [compound 22] | ≤ 30%
CC[S+]([O-])c1cccc(-c2ccc3c(c2)OCO3)c1 (stereo not shown) [compound 30] | ≤ 30%
CCSc1cccc(-c2ccc(Cl)cc2)c1 [compound 1] | ≤ 30%
CCCS(=O)(=O)c1cccc(-c2cc(F)c(C)c(F)c2)c1 [compound 36] | ≤ 30%
CCS(=O)(=O)c1cccc(-c2ccc(C)cc2F)c1 [compound 15] | ≤ 30%
CCSc1cccc(-c2ccc(C)cc2F)c1 [compound 6] | ≤ 30%
CCC[S+]([O-])c1cccc(-c2ccc(C)c(F)c2)c1 (stereo not shown) [compound 25] | ≤ 30%
CCC[S+]([O-])c1cccc(-c2cc(F)c(Cl)c(F)c2)c1 (stereo not shown) [compound 21] | ≤ 30%
CC[S+]([O-])c1cccc(-c2ccc(C)c(F)c2)c1 (stereo not shown) [compound 12] | ≤ 30%
CCC[S+]([O-])c1cccc(-c2ccc3c(c2)CCC3)c1 (stereo not shown) [compound 40] | ≤ 30%
CCCSc1cccc(-c2cc(F)c(F)c(F)c2)c1 [compound 66] | ≤ 30%
CCSc1cccc(-c2ccc(C(F)(F)F)cc2)c1 [compound 10] | ≤ 30%
Fc1cc(-c2cccc(SCC3CC3)c2)cc(F)c1Cl [compound 62] | ≤ 30%

SMILES | lesion area in the treated leaf disk compared to the lesion area in an untreated leaf disk
CCCS(=O)(=O)c1cccc(-c2ccc3c(c2)CCC3)c1 [compound 39] | ≤ 30%
CCCS(=O)(=O)c1cccc(-c2cc(F)c(Cl)c(F)c2)c1 [compound 20] | ≤ 30%
CCCSc1cccc(-c2cc(F)cc(F)c2)c1 [compound 67] | ≤ 30%
O=S(=O)(c1cccc(-c2cc(F)c(Cl)c(F)c2)c1)c1ccccn1 [compound 78] | ≤ 30%
CCS(=O)(=O)c1cccc(-c2ccc(C)cc2)c1 [compound 17] | ≤ 30%
CC[S+]([O-])c1cccc(-c2ccc(Cl)c(F)c2)c1 (stereo not shown) [compound 23] | ≤ 30%
CN(C)S(=O)(=O)c1cccc(-c2cc(F)c(Cl)c(F)c2)c1 [compound 46] | ≤ 30%
CCCSc1cccc(-c2cc(F)c(C)c(F)c2)c1 [compound 33] | ≤ 30%
CCCS(=O)(=O)c1cccc(-c2ccc(C)c(C)c2)c1 [compound 38] | ≤ 30%
CC[S+]([O-])c1cccc(-c2ccc(C)cc2)c1 (stereo not shown) [compound 18] | ≤ 30%
CCCSc1cccc(-c2ccc(C)c(C)c2)c1 [compound 34] | ≤ 30%
CCS(=O)(=O)c1cccc(-c2ccc(Cl)cc2)c1 [compound 3] | ≤ 30%
CCSc1cccc(-c2ccc(C)c(F)c2)c1 [compound 5] | ≤ 30%
CCS(=O)(=O)c1cccc(-c2ccc3c(c2)OCO3)c1 [compound 29] | ≤ 30%
CCSc1cccc(-c2ccc(Cl)c(F)c2)c1 [compound 8] | ≤ 30%
CCCS(=O)(=O)c1cccc(-c2ccc(C)c(F)c2)c1 [compound 24] | ≤ 30%
CCSc1cccc(-c2ccc(C)cc2)c1 [compound 7] | ≤ 30%
O=S(=O)(c1cccc(-c2cc(F)c(Cl)c(F)c2)c1)N1CCCC1 [compound 45] | ≤ 30%
CCSc1cccc(-c2cc(F)c(Cl)c(F)c2)c1 [compound 2] | ≤ 30%

Tested on: Barley net blotch (Pyrenophora teres)
Experiment: Test Example 8: control test against barley net blotch, pot test
Assay type: in vivo
Details: 200 ppm foliar spray, inoculation after 1 day

SMILES | lesion area in treated barley compared to the lesion area in an untreated barley
CCSc1cccc(-c2ccc(Cl)cc2)c1 [compound 1] | ≤ 30%
CCC[S+]([O-])c1cccc(-c2cc(F)c(Cl)c(F)c2)c1 (stereo not shown) [compound 21] | ≤ 30%
Fc1cc(-c2cccc(SC3CC3)c2)cc(F)c1Cl [compound 44] | ≤ 30%
CCCCSc1cccc(-c2cc(F)c(Cl)c(F)c2)c1 [compound 41] | ≤ 30%
CCS(=O)(=O)c1cccc(-c2ccc(Cl)cc2)c1 [compound 3] | ≤ 30%

Tested on: Wheat brown rust (Puccinia recondita)
Experiment: Test Example 9: control test against wheat brown rust, pot test
Assay type: in vivo
Details: 200 ppm foliar spray, inoculation after 5 to 7 days

SMILES | lesion area in treated wheat compared to the lesion area in an untreated wheat
CC[S+]([O-])c1cccc(-c2ccc(C)c(F)c2)c1 (stereo not shown) [compound 12] | ≤ 30%
CCCS(=O)(=O)c1cccc(-c2ccc3c(c2)CCC3)c1 [compound 39] | ≤ 30%
CCS(=O)(=O)c1cccc(-c2ccc(C)cc2)c1 [compound 17] | ≤ 30%
